Assay results as given in US20260217863A1, “ANTIBODY OR PEPTIDE BINDING SPECIFICALLY TO RNASE A, IMMUNOASSAY DEVICE AND METHOD FOR DETECTING RNASE A, AND METHOD FOR COLLECTING RNASE A” (UIF (University Industry Foundation), Yonsei University, priority 2022, published 2026).
Part of at least one peptide drawing is inferred or uncertain, most often the ends. Where no end group is shown, it is not given here.

Experiments:
[1] = system: RNase A; test: cCMP analysis of pig swab actual samples; type: biochemical; details: pig swab actual sample; 1 μM inhibitor; after approximately 27 minutes; versus sample without inhibitor
[2] = system: RNase A; test: cCMP analysis of saliva swab actual samples; type: biochemical; details: saliva swab actual sample; 1 μM inhibitor; after approximately 27 minutes; versus sample without inhibitor
[3] = system: RNase A; test: cCMP analysis of serum actual samples; type: biochemical; details: serum actual sample; 1 μM inhibitor; after approximately 27 minutes; versus sample without inhibitor
[4] = target: T1, RNase A (Bos taurus, UniProt P61823); test: RNA cleavage assay with total RNA from HeLa cells, agarose gel imaging; type: biochemical, bovine; parameters: Ribonuclease A (Type II-A) from bovine pancreas; purchased Sigma-Aldrich Korea; host or cells: bovine pancreas; details: RNA samples extracted from HeLa cells
T1 sequence (P61823 27-150): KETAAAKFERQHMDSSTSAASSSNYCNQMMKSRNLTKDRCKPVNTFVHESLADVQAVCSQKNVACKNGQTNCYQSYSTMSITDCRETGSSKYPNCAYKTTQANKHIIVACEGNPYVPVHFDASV
Description: The analysis of RNase inhibitory activity of Fv antibodies and synthetic peptides was performed using RNA samples extracted from HeLa cells as follows: (1) Mixing the RNA sample extracted from HeLa cells (600 ng) with 87.5 nM-5.6 μM under conditions of 37° C. for 30 minutes, (2) Electrophoresis on a 1% agarose gel at 90 V for 40 minutes. The estimation of RNase inhibitory activity was carried out by gel imaging of the cleaved RNA using a ChemiDoc XPS (Bio-Rad, CA, USA).
Using RNA samples extracted from HeLa cells, the RNase inhibitory activity of the synthesized peptides was estimated. The RNase inhibitory activity was assessed using agarose gel imaging of the cleaved RNA. […] The RNase concentration for inhibition analysis was determined to be 0.7 μg/ml, with RNase concentrations above 3.6 μg/ml. […] The optimal concentration of the Fv-antibody for RNase inhibition was determined by the cleavage reaction with total RNA in the concentration range of 87.5 nM to 5.6 μM for Fv-antibodies (Fv-1, Fv-2, Fv-3). […]
Using RNA samples extracted from HeLa cells, the RNase inhibitory activity of the synthesized peptides was estimated. The RNase inhibitory activity was assessed using agarose gel imaging of the cleaved RNA. […] The RNase concentration for inhibition analysis was determined to be 0.7 μg/ml, with RNase concentrations above 3.6 μg/ml. […]

| Sequence | decrease of RNase A activity [1] | decrease of RNase A activity [2] | decrease of RNase A activity [3] | comparison as RNase A inhibitor for total RNA of HeLa cells [4] |
| --- | --- | --- | --- | --- |
| YGPVGRVKRDD [Peptide-2] | about 41% | ~44% | about 55% |  |
| DGTAKKSRKDD [Peptide-3] | about 41% | ~35% | ~60% |  |
| CGPDSDVMTDF [Peptide-1] | about 41% | about 30% | about 53% | more favorable as an RNase A inhibitor for the total RNA of HeLa cells compared to peptide-2 |
